From PMC4431734, “Characterization of a Single-Stranded DNA-Binding-Like Protein from Nanoarchaeum equitans—A Nucleic Acid Binding Protein with Broad Substrate Specificity”

Molecular target: T1, TaqSSB (UniProt Q9KH06)
T1 sequence (looked up, limits assumed): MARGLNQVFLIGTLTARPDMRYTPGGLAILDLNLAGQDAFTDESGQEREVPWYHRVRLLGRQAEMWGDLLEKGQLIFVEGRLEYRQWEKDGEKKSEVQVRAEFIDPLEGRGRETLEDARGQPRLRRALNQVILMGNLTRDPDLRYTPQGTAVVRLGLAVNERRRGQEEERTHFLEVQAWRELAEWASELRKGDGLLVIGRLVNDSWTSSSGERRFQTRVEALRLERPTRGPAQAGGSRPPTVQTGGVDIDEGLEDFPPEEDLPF
Assay: EMSA
Conditions: activity half-life 10 min at 85 C, 0 min at 100 C, EMSA: 20 mM Tris-HCl pH 7.5, 100 mM NaCl, 1 mM EDTA, 25 C, recombinant protein, label: 5' …, single-stranded DNA

Does “TTTTTTTTTTTTTTTTTTTTTTTTTTTTTTTTTTT [(dT)35]” bind?
Result: binds

For at least one entry, the source does not settle the construct or the ends of the probe. At least one verdict was read from the data and is not stated in words by the source. Where a protein sequence is shown, tags need not be part of it.
